These results are taken from paper PMC3875777.

Construct, isoform or probe ends are uncertain for at least one entry. Results from cells or extracts need not show a direct contact. Weaker means in comparison with the reference protein, sequence or condition of that experiment.

This series concerns RNA polymerase II (endogenous). Nature of the series: pull-down. The following applies: Pull-down: 100-250 pmole probe on M-280 streptavidin Dynabeads, 100-250 ug nuclear extract, 2.5 ug salmon sperm DNA, 1 h room temperature, washes with 0.5% NP-40, protein in an extract, label: 5'-biotin.

For the sequence “GAGCGCCTCCTTAAAGCCCCCACAA (double strand) [MMP9 TATA WT]”, the binding result is reported as “binds more weakly” (HOXA2-expressing HK1 extract) and “binds” (vector HK1 extract).
